This is one part of the list. The main result of the screen is listed elsewhere. These columns were measured beside it and carry no call. The list favours compounds with an active or inconclusive main result. The note in brackets gives the kind of curve behind each potency; many fits are weak.

This passage reports cell number change and AC50 results from PubChem BioAssay AID2685 (National Center for Advancing Translational Sciences (NCATS), 2010).

This test is described as follows: qHTS Assay for Lipid Storage Modulators in Drosophila S3 Cells.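 As to cell number change: cells counted by Cell Tracker Red CMTPX staining in the red channel.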 The note with it: BODIPY lipid droplet fluorescence, 18-24 h; for cell number change: measured here: cell count max response, cells fed with added oleic acid. The method, boiled down:
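Drosophila S3 cells got compounds at several concentrations plus oleic acid (400 uM solution). Laser-scanning cytometry with 488 nm excitation read lipid droplets at 500-530 nm and cells at 575-640 nm. Percent activity was relative to 20 uM Triacsin C.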

[1] abbreviates: measured here: cell number channel AC50, cells fed with added oleic acid.
The mark [2] stands for this setting: measured here: lipid fluorescence (Fed channel) AC50, cells fed with added oleic acid.

The AC50 is the midpoint of the concentration-response curve, whichever way the signal moves. A high value points to activity only at high concentration. As to `CCC(C)(C)NC(=O)C(c1ccc(OC)cc1)N(Cc1cccs1)C(=O)CCC(=O)Nc1cc(C)on1` (stereo not drawn), the cell number change was -36.2%. Also, the concentration at half-maximal activity (AC50) under setting [1] is 29100 nM [falling, single point]. For the same compound, under setting [2], the AC50 is 29100 nM [falling, partial curve].

Turning to `CCCCn1c(N)c(N(CCC(C)C)C(=O)CN2C(=O)C3CCCCC3C2=O)c(=O)[nH]c1=O` (stereo not drawn), the AC50 under setting [2] was 1260 nM [rising, full curve, poor fit].

`COc1ccc(C(=O)N(C)C2CCCCC2)cc1S(=O)(=O)N1CCOCC1`: the cell number change turned out to be 18.4%. For the same compound, the AC50 under setting [1] was 82 nM [rising, full curve, poor fit]. In addition, under setting [2], the concentration at half-maximal activity (AC50) is 103 nM [rising, full curve, poor fit]. As to `Cn1cc(CN(CCCN2CCOCC2)C(=S)Nc2cccc(Cl)c2)c2ccccc21`, the cell number change is -0.731%. Besides, under setting [2], the AC50 was 411 nM [rising, full curve, poor fit]. Turning to `Cc1ccc(N=Nc2c(O)[nH]c3ccc(F)cc23)cc1`, the concentration at half-maximal activity (AC50) under setting [2] is 8200 nM [falling, partial curve, poor fit]. On to `O=C(NC1CCN(C(=O)NC2CCCCC2)CC1)c1ccco1`, for which the cell number change is -37.9%. For the same compound, under setting [1], the concentration at half-maximal activity (AC50) is 13000 nM [falling, partial curve]. Moreover, the AC50 under setting [2] is 14600 nM [falling, partial curve]. Regarding `CN1CCC(NC(=O)c2ccncc2)CC1`, the cell number change was -22.4%. Moreover, the half-maximal activity concentration (AC50) under setting [1] was 6.51 nM [falling, full curve, poor fit]. Besides, the AC50 under setting [2] is 4.61 nM [falling, full curve, poor fit]. For the compound `O=C(COc1ccc(F)cc1)Nc1nnc(S(=O)(=O)N2CCCC2)s1`, the cell number change was -1.2%. For the same compound, the half-maximal activity concentration (AC50) under setting [2] is 29100 nM [rising, single point]. Regarding `COc1ccc(NC(=O)CN(C)C(=O)C2CCCO2)cc1` (stereo not drawn), the cell number change was 12.6%. As for `CCN(CC)S(=O)(=O)c1ccc2[nH]c(=O)cc(C(=O)Nc3ccc(C)cc3)c2c1`, the cell number change is 5.41%. In addition, the AC50 under setting [1] was 4.61 nM [rising, full curve, poor fit]. For `O=C(COC(=O)c1cccnc1Cl)c1ccc(F)cc1`, the cell number change was -25.7%. As for `O=C(N/N=C/c1ccncc1)C12CC3CC(CC(C3)C1)C2`, the cell number change was -27.4%. The concentration at half-maximal activity (AC50) under setting [2] is 5170 nM [falling, full curve, poor fit].

As to `Cc1ccc2c(C(=O)CN3CCCC3)c(C)[nH]c2c1`, the cell number change stood at 13.1%. In addition, the AC50 under setting [2] was 2060 nM [rising, partial curve].

Regarding `CC(C)CCNC(=O)[C@H](CC(C)C)NC(=O)[C@H]1O[C@@H]1C(=O)O`, the cell number change is -15.8%. Further, the AC50 under setting [2] is 25900 nM [falling, single point].

In the case of `Cc1onc(-c2c(Cl)cccc2Cl)c1C(=O)NCCc1ccncc1`, the cell number change amounted to 18.1%. In addition, the half-maximal activity concentration (AC50) under setting [1] is 3260 nM [rising, single point]. On to `COc1cc(OC)cc(-c2cc(N)n(S(=O)(=O)Cc3ccccc3)n2)c1`, for which the cell number change came out at 1.47%. Also, the AC50 under setting [2] was 146 nM [rising, full curve, poor fit]. `O=C1/C(=N\S(=O)(=O)c2cccs2)C([n+]2ccc(CCCc3ccccc3)cc2)=C([O-])c2ccccc21`: the cell number change is -55.3%. Further, under setting [1], the half-maximal activity concentration (AC50) is 29100 nM [falling, partial curve, poor fit]. In the case of `Cc1ccc(S(=O)(=O)N2Cc3ccccc3CC2C(=O)Nc2cc(C)on2)cc1` (stereo not drawn), the cell number change is -3.67%. Also, under setting [2], the AC50 was 651 nM [falling, single point]. On to `Cc1ccc(Cl)cc1NC(=O)COC(=O)c1ccc(CN2CCCC2=O)cc1`, for which the cell number change was -16.5%.

For the compound `Cc1cccc(N/N=C(\C=N\N)C(=O)c2ccc(Br)cc2)c1`, the cell number change is -8.87%. Moreover, the concentration at half-maximal activity (AC50) under setting [1] is 3260 nM [rising, partial curve, poor fit]. In the case of `COc1ccc(NC(=O)C23CC4CC(C2)CC(c2ccccc2)(C4)C3)c(OC)c1`, the cell number change stood at 9.71%. Further, the half-maximal activity concentration (AC50) under setting [2] was 820 nM [rising, full curve, poor fit].

As for `CCN(CC)CCOc1ccccc1C(C)=O`, the AC50 under setting [2] was 461 nM [falling, partial curve, poor fit]. Consider `Cc1cc2c(=O)n(NC(N)=O)c(C)nc2s1`, for which the cell number change amounted to 5.46%.

In the case of `Cn1c(=O)c2c(nc(Br)n2Cc2ccc3ccccc3c2)n(C)c1=O`, the half-maximal activity concentration (AC50) under setting [2] is 16400 nM [rising, partial curve]. As to `COc1ccccc1NC(=O)Nc1nnc(C(C)c2ccccc2)s1` (stereo not drawn), the cell number change was -19.4%. Regarding `CC(=O)c1cccc(NC(=S)NC(=O)c2ccccc2)c1`, the cell number change is 24.9%. Besides, under setting [2], the concentration at half-maximal activity (AC50) was 9200 nM [rising, partial curve]. `CCC(C)NC(=O)COC(=O)c1oc2ccccc2c1CSc1ccc(Cl)cc1` (stereo not drawn): the cell number change worked out at 3.09%. Also, under setting [2], the AC50 was 6510 nM [rising, single point]. With `CC(C)Oc1ccc(/C=N/NC(=O)c2ccc(N(Cc3ccccc3)S(C)(=O)=O)cc2)cc1`, the cell number change came out at 30.7%. In addition, the AC50 under setting [1] is 29100 nM [rising, single point]. Under setting [2], the AC50 was 51.7 nM [falling, full curve, poor fit]. Take `CCOc1ccc(N2C(=O)c3cccnc3C2Nc2ccc(OC)cc2)cc1` (stereo not drawn): the cell number change is -13.1%.

With `CCCn1c(SCC(=O)Nc2ccccc2C(=O)NC2CC2)n[nH]c1=O`, the cell number change is -16%. Moreover, the AC50 under setting [2] was 5800 nM [falling, single point]. For `COc1ccccc1CNn1c(-c2cccc(C)c2)nc2ccccc2c1=O`, the concentration at half-maximal activity (AC50) under setting [2] is 580 nM [rising, single point]. For the compound `Cc1nc(N2CCN(C(c3ccccc3)c3ccccc3)CC2)[nH]c(=O)c1C`, the cell number change stood at 4.01%. In the case of `CCOc1ccc(-c2nc(S(=O)(=O)c3ccccc3)c(NCc3cccnc3)o2)cc1`, under setting [2], the AC50 was 580 nM [rising, full curve]. For the compound `CN(CCOc1ccc(Br)cc1)C(=O)CNC(=O)c1ccc2ccccc2c1`, the cell number change was 11.2%. Moreover, the AC50 under setting [2] is 5.17 nM [rising, full curve, poor fit]. As for `Cc1ccc(-n2c(C)nnc2SCC(=O)N(C)C2CCS(=O)(=O)C2)cc1` (stereo not drawn), the cell number change amounted to 1.47%. Also, the AC50 under setting [2] is 18400 nM [falling, partial curve, poor fit]. Turning to `COc1ccc(C(=O)/C(=C/N(C)C)S(=O)(=O)c2ccccc2)cc1`, the AC50 under setting [1] is 103 nM [falling, full curve, poor fit] and the AC50 under setting [2] was 130 nM [falling, full curve, poor fit].

As to `Cc1ccc(S(=O)(=O)N/N=C\c2ccc3c(c2)OCO3)c(C)c1`, the cell number change worked out at 22.3%. The half-maximal activity concentration (AC50) under setting [2] was 29100 nM [rising, single point].

Consider `O=C(CN(Cc1ccco1)C(=O)CNS(=O)(=O)c1ccccc1)NCc1ccc(F)cc1`, for which the cell number change was -9.07%. Also, under setting [2], the AC50 is 920 nM [falling, partial curve].
